Test results from paper PMC4627809.
These are yes or no findings as the source states them, for the method shown. For part of these data: In cells and extracts the contact can be indirect. Some results given as binding are weak or reduced against the parent protein; the word gives no strength. For part of these data: Where a sequence is shown, tags or fusion partners need not be part of it.

Assays:
FLAG-HSP90α E47A (human) = FLAG-HSP90α E47A (human) (UniProt P07900); experiment: co-IP; HEK293 co-transfected with FLAG-HSP90 construct and client for 18 h; lysis in TGNET (50 mM Tris HCl pH 7.5, 5% glycerol, 100 mM NaCl, 2 mM EDTA, 0.5% Triton X-100); 700 μg lysate on anti-FLAG beads 2 h at 4°C; western blot for the client
[1] = molecular target: FLAG-HSP90β IL213/5AA (human) (UniProt P08238); experiment: as above
[2] = molecular target: FLAG-HSP90β R392A (human) (UniProt P08238); experiment: as above
[3] = molecular target: FLAG-HSP90β wild type (human) (UniProt P08238); experiment: as above
FLAG-HSP90α D93A (human) = FLAG-HSP90α D93A (human) (UniProt P07900); experiment: as above
[4] = molecular target: FLAG-HSP90α IL218/20AA (human) (UniProt P07900); experiment: as above
FLAG-HSP90β D88A (human) = FLAG-HSP90β D88A (human) (UniProt P08238); experiment: as above
[5] = molecular target: FLAG-HSP90α wild type (human) (UniProt P07900); experiment: as above
[6] = molecular target: FLAG-HSP90α R400A (human) (UniProt P07900); experiment: as above
FLAG-HSP90β E42A (human) = FLAG-HSP90β E42A (human) (UniProt P08238); experiment: as above
[7] = molecular target: FLAG-HSP90β wild type (human), P08238; experiment: LUMIER; HEK293 in 96-well plates co-transfected with NanoLuc-client and 3XFLAG-HSP90α or β; TGNET lysate on anti-FLAG antibody-coated plate 2 h at 4°C; NanoLuc read-out divided by anti-FLAG-HRP read-out = relative interaction strength; conditions: remark: other sources report otherwise
[8] = molecular target: FLAG-HSP90β wild type (human) (UniProt P08238); experiment: as above

Measured: binding

B1: HA-RHOBTB2 (protein, UniProt Q9BYZ6 1-727)
chain: MDSDMDYERPNVETIKCVVVGDNAVGKTRLICARACNATLTQYQLLATHVPTVWAIDQYRVCQEVLERSRDVVDDVSVSLRLWDTFGDHHKDRRFAYGRSDVVVLCFSIANPNSLHHVKTMWYPEIKHFCPRAPVILVGCQLDLRYADLEAVNRARRPLARPIKPNEILPPEKGREVAKELGIPYYETSVVAQFGIKDVFDNAIRAALISRRHLQFWKSHLRNVQRPLLQAPFLPPKPPPPIIVVPDPPSSSEECPAHLLEDPLCADVILVLQERVRIFAHKIYLSTSSSKFYDLFLMDLSEGELGGPSEPGGTHPEDHQGHSDQHHHHHHHHHGRDFLLRAASFDVCESVDEAGGSGPAGLRASTSDGILRGNGTGYLPGRGRVLSSWSRAFVSIQEEMAEDPLTYKSRLMVVVKMDSSIQPGPFRAVLKYLYTGELDENERDLMHIAHIAELLEVFDLRMMVANILNNEAFMNQEITKAFHVRRTNRVKECLAKGTFSDVTFILDDGTISAHKPLLISSCDWMAAMFGGPFVESSTREVVFPYTSKSCMRAVLEYLYTGMFTSSPDLDDMKLIILANRLCLPHLVALTEQYTVTGLMEATQMMVDIDGDVLVFLELAQFHCAYQLADWCLHHICTNYNNVCRKFPRDMKAMSPENQEYFEKHRWPPVWYLKEEDHYQRARKEREKEDYLHLKRQPKRRWLFWNSPSSPSSSAASSSSPSSSSAVV
binds: FLAG-HSP90α E47A (human) | [1] | [2] | [3] | FLAG-HSP90α D93A (human) | [4] | FLAG-HSP90β D88A (human) | [5] | [6] | FLAG-HSP90β E42A (human)

B2: NL-HSF1, Q00613 1-529 (protein)
chain: MDLPVGPGAAGPSNVPAFLTKLWTLVSDPDTDALICWSPSGNSFHVFDQGQFAKEVLPKYFKHNNMASFVRQLNMYGFRKVVHIEQGGLVKPERDDTEFQHPCFLRGQEQLLENIKRKVTSVSTLKSEDIKIRQDSVTKLLTDVQLMKGKQECMDSKLLAMKHENEALWREVASLRQKHAQQQKVVNKLIQFLISLVQSNRILGVKRKIPLMLNDSGSAHSMPKYSRQFSLEHVHGSGPYSAPSPAYSSSSLYAPDAVASSGPIISDITELAPASPMASPGGSIDERPLSSSPLVRVKEEPPSPPQSPRVEEASPGRPSSVDTLLSPTALIDSILRESEPAPASVTALTDARGHTDTEGRPPSPPPTSTPEKCLSVACLDKNELSDHLDAMDSNLDNLQTMLSSHGFSVDTSALLDLFSPSVTVPDMSLPDLDSSLASIQELLSPQEPPRPPEAENSSPDSGKQLVHYTAQPLFLLDPGSVDTGSNDLPVLFELGEGSYFSEGDGFAEDPTISLLTGSEPPKAKDPTVS
binds: [7]

B3: NL-RHOBTB2/DBC2 (protein, UniProt Q9BYZ6 1-727)
chain: B1 chain
binds: [8]
